Experimental data published in article doi:10.1101/286708.
Where a chain is given by its changes, count along the chain named. No constants are given. Whether binding was seen depends on the method and setting. Binding seen in cells or lysates may run through a third protein. Some binding calls cover weakened binding; strength is not graded here. For some assays here: Sequences can lack the tags named with a protein. One block for each substance: values may come before it.

Protein sequences, listed by entry. Tags and fused reporters are not part of them. Lines headed by an entry give the natural chain unless they say otherwise; changes in a name come on top. Chains listed by the source or under a name are the forms on record and can include a tag or linker.
UniProt P49674: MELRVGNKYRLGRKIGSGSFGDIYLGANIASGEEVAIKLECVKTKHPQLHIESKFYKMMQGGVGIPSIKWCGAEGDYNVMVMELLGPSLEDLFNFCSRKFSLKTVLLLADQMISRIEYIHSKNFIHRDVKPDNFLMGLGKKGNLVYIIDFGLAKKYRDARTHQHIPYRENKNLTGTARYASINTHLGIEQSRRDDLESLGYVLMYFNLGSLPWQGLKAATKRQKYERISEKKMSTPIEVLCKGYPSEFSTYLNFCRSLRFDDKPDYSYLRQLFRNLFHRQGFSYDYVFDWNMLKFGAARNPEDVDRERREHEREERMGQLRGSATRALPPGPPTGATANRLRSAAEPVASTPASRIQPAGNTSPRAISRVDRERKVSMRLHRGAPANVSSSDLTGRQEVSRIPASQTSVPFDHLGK
myc-MDM2, in vitro transcribed and translated (Q00987-11, form named): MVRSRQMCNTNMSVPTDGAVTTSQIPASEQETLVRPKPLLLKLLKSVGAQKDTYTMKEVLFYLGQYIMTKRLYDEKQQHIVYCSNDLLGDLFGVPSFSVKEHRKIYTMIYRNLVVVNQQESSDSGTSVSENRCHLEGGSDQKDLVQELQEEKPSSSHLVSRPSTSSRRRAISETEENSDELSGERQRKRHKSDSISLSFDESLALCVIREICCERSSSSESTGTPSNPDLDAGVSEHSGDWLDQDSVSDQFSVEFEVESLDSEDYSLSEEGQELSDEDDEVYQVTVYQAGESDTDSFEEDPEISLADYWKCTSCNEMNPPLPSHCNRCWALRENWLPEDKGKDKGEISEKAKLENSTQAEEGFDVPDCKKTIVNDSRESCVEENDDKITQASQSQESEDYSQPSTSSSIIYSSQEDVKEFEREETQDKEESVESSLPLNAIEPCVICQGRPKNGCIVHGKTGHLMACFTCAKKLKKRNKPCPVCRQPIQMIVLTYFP
UniProt Q9Y297: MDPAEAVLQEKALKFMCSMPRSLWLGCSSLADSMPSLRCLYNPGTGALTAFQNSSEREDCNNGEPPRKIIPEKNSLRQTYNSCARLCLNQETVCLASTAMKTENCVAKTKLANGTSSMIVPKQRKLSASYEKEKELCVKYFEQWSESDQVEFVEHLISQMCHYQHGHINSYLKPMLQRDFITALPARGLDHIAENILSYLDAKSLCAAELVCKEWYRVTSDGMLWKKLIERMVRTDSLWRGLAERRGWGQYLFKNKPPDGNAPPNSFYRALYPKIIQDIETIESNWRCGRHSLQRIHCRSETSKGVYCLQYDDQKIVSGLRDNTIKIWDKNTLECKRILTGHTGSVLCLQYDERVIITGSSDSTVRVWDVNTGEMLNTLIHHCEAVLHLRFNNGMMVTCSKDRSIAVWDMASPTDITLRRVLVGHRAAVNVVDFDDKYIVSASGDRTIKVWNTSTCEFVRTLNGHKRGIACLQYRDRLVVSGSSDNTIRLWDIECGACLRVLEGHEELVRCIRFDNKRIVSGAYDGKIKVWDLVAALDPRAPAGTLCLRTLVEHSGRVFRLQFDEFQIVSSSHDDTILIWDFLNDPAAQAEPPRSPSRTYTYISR
β-TrCP1, in vitro transcribed and translated (Q9Y297-2, form named): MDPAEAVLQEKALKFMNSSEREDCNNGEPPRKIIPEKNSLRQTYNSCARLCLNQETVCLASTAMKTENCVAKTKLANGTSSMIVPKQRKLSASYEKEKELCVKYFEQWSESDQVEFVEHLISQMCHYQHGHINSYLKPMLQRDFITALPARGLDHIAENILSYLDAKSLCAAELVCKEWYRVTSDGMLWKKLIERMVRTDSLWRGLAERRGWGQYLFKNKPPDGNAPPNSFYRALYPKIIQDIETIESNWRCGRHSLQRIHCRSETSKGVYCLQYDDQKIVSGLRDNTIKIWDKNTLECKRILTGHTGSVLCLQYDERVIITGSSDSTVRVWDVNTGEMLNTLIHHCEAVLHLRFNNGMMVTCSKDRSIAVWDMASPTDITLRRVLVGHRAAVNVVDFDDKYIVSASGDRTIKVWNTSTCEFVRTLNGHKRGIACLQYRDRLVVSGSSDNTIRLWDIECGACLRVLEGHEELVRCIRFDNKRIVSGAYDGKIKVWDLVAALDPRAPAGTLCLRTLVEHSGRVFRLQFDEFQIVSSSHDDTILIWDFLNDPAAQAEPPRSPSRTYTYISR

Experiments:
[1] = molecular target: T1, myc-PER2(683-872), in vitro transcribed and translated (human) (UniProt O15055); experiment: co-IP
T1 sequence: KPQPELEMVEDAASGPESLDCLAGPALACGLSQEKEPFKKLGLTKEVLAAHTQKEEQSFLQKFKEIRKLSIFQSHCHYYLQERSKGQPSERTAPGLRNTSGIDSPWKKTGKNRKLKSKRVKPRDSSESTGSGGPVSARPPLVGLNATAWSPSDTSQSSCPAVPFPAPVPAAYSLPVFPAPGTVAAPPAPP

[2] = molecular target: T2, GST-PER2(356-574) (human) (UniProt O15055); experiment: pull-down
T2 sequence: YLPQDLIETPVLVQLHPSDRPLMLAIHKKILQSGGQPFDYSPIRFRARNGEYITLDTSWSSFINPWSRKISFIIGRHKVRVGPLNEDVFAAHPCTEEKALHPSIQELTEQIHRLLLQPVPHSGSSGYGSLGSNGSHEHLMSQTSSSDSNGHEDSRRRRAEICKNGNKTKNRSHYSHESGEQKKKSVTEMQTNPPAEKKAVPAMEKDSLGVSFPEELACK

[3] = molecular target: T3, GST-PER2(683-872) (human) (UniProt O15055); experiment: pull-down
T3 sequence: T1 sequence

[4] = molecular target: T4, FLAG-PER2 expressed in HCT116 p53+/+ cells (human) (UniProt O15055); experiment: co-IP
T4 sequence: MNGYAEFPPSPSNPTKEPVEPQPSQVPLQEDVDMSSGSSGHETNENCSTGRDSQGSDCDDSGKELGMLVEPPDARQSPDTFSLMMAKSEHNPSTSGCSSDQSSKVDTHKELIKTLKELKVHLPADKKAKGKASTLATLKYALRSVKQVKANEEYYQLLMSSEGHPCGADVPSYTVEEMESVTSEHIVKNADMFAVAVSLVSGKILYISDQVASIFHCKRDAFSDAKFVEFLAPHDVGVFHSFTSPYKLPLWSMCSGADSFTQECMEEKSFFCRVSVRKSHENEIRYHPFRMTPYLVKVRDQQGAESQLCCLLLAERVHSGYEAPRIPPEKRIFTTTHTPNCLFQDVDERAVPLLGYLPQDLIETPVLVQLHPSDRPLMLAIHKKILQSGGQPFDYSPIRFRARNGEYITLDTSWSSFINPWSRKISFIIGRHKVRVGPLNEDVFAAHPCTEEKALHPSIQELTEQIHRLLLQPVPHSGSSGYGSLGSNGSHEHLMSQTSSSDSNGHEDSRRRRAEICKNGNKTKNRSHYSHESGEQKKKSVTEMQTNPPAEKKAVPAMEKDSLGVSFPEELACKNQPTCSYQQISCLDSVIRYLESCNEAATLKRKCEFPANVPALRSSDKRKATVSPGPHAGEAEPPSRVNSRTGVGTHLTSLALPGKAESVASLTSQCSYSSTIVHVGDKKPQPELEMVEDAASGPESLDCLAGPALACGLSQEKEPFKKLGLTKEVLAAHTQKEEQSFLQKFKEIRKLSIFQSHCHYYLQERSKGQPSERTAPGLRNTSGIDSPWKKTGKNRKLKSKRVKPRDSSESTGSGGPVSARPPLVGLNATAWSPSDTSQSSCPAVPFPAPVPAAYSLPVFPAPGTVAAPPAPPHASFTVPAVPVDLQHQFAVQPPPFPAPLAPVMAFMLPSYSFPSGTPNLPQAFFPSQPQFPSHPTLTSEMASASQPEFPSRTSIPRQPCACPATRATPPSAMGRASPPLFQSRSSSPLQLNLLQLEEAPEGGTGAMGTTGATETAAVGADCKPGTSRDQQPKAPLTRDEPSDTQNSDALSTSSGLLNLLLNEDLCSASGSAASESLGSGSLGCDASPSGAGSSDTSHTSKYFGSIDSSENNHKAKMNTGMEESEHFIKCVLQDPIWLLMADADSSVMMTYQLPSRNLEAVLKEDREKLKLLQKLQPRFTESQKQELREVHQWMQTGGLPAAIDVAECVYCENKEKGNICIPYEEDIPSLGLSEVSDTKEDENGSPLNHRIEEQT

[5] = molecular target: T5, endogenous PER2 of HCT116 cells (human (endogenous in HCT116)) (UniProt O15055); experiment: co-IP
T5 sequence: T4 sequence

[6] = molecular target: T6, FLAG-PER2, in vitro transcribed and translated (human) (UniProt O15055); experiment: co-IP
T6 sequence: T4 sequence

[7] = molecular target: T7, PER2(S662A), in vitro transcribed and translated (human) (UniProt O15055); experiment: co-IP
T7 sequence: T4 sequence with S662A

[8] = molecular target: T8, myc-PER2, in vitro transcribed and translated (human) (UniProt O15055); experiment: co-IP
T8 sequence: T4 sequence

Substance: FLAG-CK1ε, in vitro transcribed and translated (from UniProt P49674 1-416) (enzyme)
binding [1]: binds

Substance: myc-MDM2 expressed in HCT116 cells (from UniProt Q00987-11 1-497)
binding [5]: binds

Substance: β-TrCP1, in vitro transcribed and translated (from UniProt Q9Y297-2 1-569)
binding [7]: binds
binding [8]: binds

Other lines, results leading:

binding [2]: binds
binding [3]: binds
Substance: FLAG-MDM2, in vitro transcribed and translated (from UniProt Q00987-11 1-497)

binding [4]: binds
Substance: endogenous β-TrCP1 of HCT116 p53+/+ cells (from UniProt Q9Y297 1-605)

binding [6]: binds
Substance: myc-MDM2, in vitro transcribed and translated (from UniProt Q00987-11 1-497)
